Source: paper PMC7819943, “Rice protein-binding microarrays: a tool to detect cis-acting elements near promoter regions in rice”
Some of the results follow.

Molecular target: T1, OsSMF1 (Oryza sativa, UniProt Q6ZLB0 1-436)
T1 sequence: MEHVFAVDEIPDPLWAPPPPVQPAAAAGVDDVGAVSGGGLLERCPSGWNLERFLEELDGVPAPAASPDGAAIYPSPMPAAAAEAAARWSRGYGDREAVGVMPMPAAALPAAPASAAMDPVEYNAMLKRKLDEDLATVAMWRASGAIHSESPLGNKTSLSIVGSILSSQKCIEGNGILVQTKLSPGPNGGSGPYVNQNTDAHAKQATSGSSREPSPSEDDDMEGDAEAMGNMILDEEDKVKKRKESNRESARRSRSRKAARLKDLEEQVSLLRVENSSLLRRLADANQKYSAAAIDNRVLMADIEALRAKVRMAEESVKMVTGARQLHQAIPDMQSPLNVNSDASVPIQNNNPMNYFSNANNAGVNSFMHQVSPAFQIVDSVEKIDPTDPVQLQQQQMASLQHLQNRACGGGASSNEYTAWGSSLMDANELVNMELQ
Experiment: protein-binding microarray (RPBM); PBS, 2% BSA, 51.3 ng/ul salmon testes DNA, 50 uM zinc acetate, 200 nM TF, 25 C, 1 h; high values mean tight binding
Details: protein: recombinant; tags: N-terminal polyhistidine and DsRed monomer fusion (pET32a); chain copies: 2; label: CyDye5-dUTP incorporated in the synthesized complementary strand; 3' TTTTT single-stranded linker to array surface; dsDNA, one strand shown
How it was run: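 Binding signal is defined as the fluorescence intensity of each feature in arbitrary units, read on an Axon 4000B scanner. Transcription factors with N-terminal polyhistidine and DsRed fusions came from E. coli BL21-CodonPlus and were purified on Ni–NTA. They were incubated at 200 nM for 1 h at 25 °C on a custom Agilent array that had been made double-stranded with Cy5-dUTP, with 50 µM zinc acetate present, and the array was washed.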

Row | Sequence | binding signal
1 | TTATTCTCCGAAGAGGGTTTGTTTGGATGACTCACCTGCACGGAGTCACCTAGTGCAG | 12600 fluorescence intensity (a.u.)
2 | ACGCTACGCTGGACACCACGTGGCCACGCCAAGCTTAGCACGGAGTCACCTAGTGCAG | 4820 fluorescence intensity (a.u.)
3 | ATCCCATCGCGCCACGCGAGCTCGATCGATCGAGGTGTGTCGGAGTCACCTAGTGCAG | 3490 fluorescence intensity (a.u.)
4 | ATTTCGAAAATGCACAAAATGGCCAAAATGACAAAGTGGTCGGAGTCACCTAGTGCAG | 3350 fluorescence intensity (a.u.)
5 | CCAAATGTCCATGGTTGATCACGTGTGAACACGGTTTGTTCGGAGTCACCTAGTGCAG | 3160 fluorescence intensity (a.u.)
6 | ACTTGTGCTGATCCATTCCATGTCAATGGAGTTCATGGAGCGGAGTCACCTAGTGCAG | 4090 fluorescence intensity (a.u.)
7 | ATTAACGACACACGTGTTGAAATCTTATTCTACGAGCAGCCGGAGTCACCTAGTGCAG | 4680 fluorescence intensity (a.u.)
8 | CTCCTCTTCCCTTCCCTTCTCTCTTTTCTTTTCTCTCACACGGAGTCACCTAGTGCAG | 28600 fluorescence intensity (a.u.)
9 | GCCGCCGACGACGACGAGTGGTGGAGAGGAGGAGACGAAGCGGAGTCACCTAGTGCAG | 37000 fluorescence intensity (a.u.)
10 | TTATAACCTGAAACGGATAGAGTATCAACTACGTCATGCACGGAGTCACCTAGTGCAG | 3280 fluorescence intensity (a.u.)
11 | TATATGCCACGTGAGCTAATAAGATTTTAATACTACCTTGCGGAGTCACCTAGTGCAG | 7910 fluorescence intensity (a.u.)
12 | GCCCTCTTCGCGGCGTTCGACGCCGCCGTCGAGATCTCCTCGGAGTCACCTAGTGCAG | 25200 fluorescence intensity (a.u.)
13 | TTCCCAAAAGGAGGCCCAATGAGAACTTGTATAGTCCTATCGGAGTCACCTAGTGCAG | 19500 fluorescence intensity (a.u.)
14 | CTAATTGGCAAATTAAACAAAGAAGAAGAGGAAAGGAAGGCGGAGTCACCTAGTGCAG | 32300 fluorescence intensity (a.u.)
15 | ACGACTACAACTACAAGACGATCTTTCCAAAGGAAGACCGCGGAGTCACCTAGTGCAG | 3300 fluorescence intensity (a.u.)
16 | AATTCTCCTCAATAATTAATGGTTATTAGTAAGACACAGACGGAGTCACCTAGTGCAG | 30000 fluorescence intensity (a.u.)
17 | CCGCGCCTGATCCGTCGGTGGTGGTGGCACGTGGGGCTTGCGGAGTCACCTAGTGCAG | 4570 fluorescence intensity (a.u.)
18 | CACCCACGAGCACACCCGTACCAGGGGACGAGGAGGTGGACGGAGTCACCTAGTGCAG | 38300 fluorescence intensity (a.u.)
19 | CACAATATTCCCTTCCACGCCACCAACTTTTCCACCCTTCCGGAGTCACCTAGTGCAG | 3910 fluorescence intensity (a.u.)
20 | TGATTGCAACAGGTGGGCTGGTTTTGCGTCATTTGACCAGCGGAGTCACCTAGTGCAG | 51900 fluorescence intensity (a.u.)
21 | CTTGGGCATGATGGTGACGCGCTTGGCGTGGATGGCGCACCGGAGTCACCTAGTGCAG | 4090 ± 122 fluorescence intensity (a.u.)

Row | Sequence | binding signal
22 | GCCACGCCTCTCGCGCCAAGCCACCCTCCTCCACCGGACGCGGAGTCACCTAGTGCAG | 3850 fluorescence intensity (a.u.)
23 | GCTCTGGATGGCTGAACCACCTCATGGTCAGAGTTGGGTCCGGAGTCACCTAGTGCAG | 4340 fluorescence intensity (a.u.)
24 | TCCGGCTTCCGATTCTCCCTGACGCCACTCCCTTCACCACCGGAGTCACCTAGTGCAG | 3530 fluorescence intensity (a.u.)
25 | AAGGTGTCTAATATGTAGGGGTGTCACCAGGAAGTGAACTCGGAGTCACCTAGTGCAG | 3360 fluorescence intensity (a.u.)
26 | TGACCCTATTATGTCATACCGTGTATATATTCGAATACTTCGGAGTCACCTAGTGCAG | 3590 fluorescence intensity (a.u.)
27 | TCGAGTTCCGGTGCTTGTTGACGTGATTTGGGTTTTGGCCCGGAGTCACCTAGTGCAG | 4880 fluorescence intensity (a.u.)
28 | AGTCATATATAAACAGGTCGTACGTGTTGCCGTGTTCATGCGGAGTCACCTAGTGCAG | 5640 fluorescence intensity (a.u.)
29 | CTGAAAGACGTAATGTGTGTATAACAGGTGGCACCATATACGGAGTCACCTAGTGCAG | 3350 fluorescence intensity (a.u.)
30 | AAAATATATTACTACCTCCGTTTCATATTATAAGACTTTCCGGAGTCACCTAGTGCAG | 65400 fluorescence intensity (a.u.)
31 | ATGGAATGGCGAGTATTTATCCTCAATCCCAGAGATGGCACGGAGTCACCTAGTGCAG | 38400 fluorescence intensity (a.u.)
32 | TGCCACGCACGATGACAGTGACATCTTGCTAACATCCTCCCGGAGTCACCTAGTGCAG | 4640 fluorescence intensity (a.u.)
33 | TCTAATGCCTCGTTGCTGCCACGTTGAACAAAGACCAGGTCGGAGTCACCTAGTGCAG | 6510 fluorescence intensity (a.u.)
34 | CCTTTCAGAATCCTACGTGGTGCTGATGTGGCATGCCACACGGAGTCACCTAGTGCAG | 36400 fluorescence intensity (a.u.)
35 | CATCACCTGCACCCACCACATCACCTCATTGCGAGCCAGCCGGAGTCACCTAGTGCAG | 3410 fluorescence intensity (a.u.)
36 | AATTTACAGTTTTACACGTTTAGAGTTTACTGTAACGTGCCGGAGTCACCTAGTGCAG | 3250 fluorescence intensity (a.u.)
37 | GCCGGCGACGGAGGCATCCACCACGTTGGTGTTTGTTCAGCGGAGTCACCTAGTGCAG | 4940 fluorescence intensity (a.u.)
38 | TAAGTTGGATTGAATTGGCTTGTCTACACGTGTCCTTTCCCGGAGTCACCTAGTGCAG | 7940 fluorescence intensity (a.u.)
39 | CTGCCATGTCAGGAAGAGCTCGAGGCCCCAAGCCGCCAAGCGGAGTCACCTAGTGCAG | 21000 fluorescence intensity (a.u.)
40 | TTGATGTGCCACGTAAACGCCACATCAGCTAAACCCAGGCCGGAGTCACCTAGTGCAG | 31400 fluorescence intensity (a.u.)
41 | TCCCTTCTCATTATGAATTTGTCTTGAGACCATGGGCAAGCGGAGTCACCTAGTGCAG | 8360 fluorescence intensity (a.u.)
42 | GGTCGAGGTCGGGGCGGCCGCTGCCGCTGCCGCGGTCGCACGGAGTCACCTAGTGCAG | 32300 fluorescence intensity (a.u.)

Random excerpt: two entries already listed.
Row | Sequence | binding signal
36 | AATTTACAGTTTTACACGTTTAGAGTTTACTGTAACGTGCCGGAGTCACCTAGTGCAG | 3250 fluorescence intensity (a.u.)
28 | AGTCATATATAAACAGGTCGTACGTGTTGCCGTGTTCATGCGGAGTCACCTAGTGCAG | 5640 fluorescence intensity (a.u.)
